Data as given in PubChem BioAssay AID1259254 (NCATS, 2017).
Shown is an unselected part of about 59,000 reagents. About 1,550 of all reagents (2.6%) were called active. 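G2 share is only a proxy for re-replication; each gene was hit by three separate siRNAs, and active genes were retested.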 Reagents against one gene are numbered here. Further read-outs or replicates are left out here. The record does not give: the amount of reagent.

Purpose: 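Finding genes that stop cells copying their DNA twice in one cycle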 (primary screen)
Cell system: human HCT116 colorectal cancer cells
Reagents: single siRNA against human genes
Duration: 3 days
Read-out: 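Imaged Hoechst DNA stain sorts each cell into a cycle phase by DNA amount; per plate, G2 fraction set to 0% for non-targeting and 100% for GMNN siRNA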
Reading the numbers: G2 robust z-score and G2 cells, % of GMNN control: higher = more G2 cells, more excess DNA replication
Active means: 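Active siRNAs have a G2 robust z of 5 or more median absolute deviations over the median, which in these data means about 38% or higher of GMNN control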

RPL10P9 (ribosomal protein L10 pseudogene 9) #1 gave G2 robust z-score -0.99; G2 cells, % of GMNN control -3.99; inactive.
Knock-down of RPL10P9 (ribosomal protein L10 pseudogene 9) #2 came out at: G2 robust z-score 1.34; G2 cells, % of GMNN control 12.4; inactive.
With knock-down of RPL10P9 (ribosomal protein L10 pseudogene 9) #3 the results were G2 robust z-score 5.4; G2 cells, % of GMNN control 41; active.
IGLL3P (immunoglobulin lambda like polypeptide 3, pseudogene) #1 gave G2 robust z-score -0.686; G2 cells, % of GMNN control -1.86; inactive.
With knock-down of IGLL3P (immunoglobulin lambda like polypeptide 3, pseudogene) #2, the screen gave G2 robust z-score 0.86; G2 cells, % of GMNN control 9.02; inactive.
For IGLL3P (immunoglobulin lambda like polypeptide 3, pseudogene) #3 the deposit lists G2 robust z-score -0.291; G2 cells, % of GMNN control 0.918; inactive.

Records above marked active:
RPL10P9 (ribosomal protein L10 pseudogene 9) #3 → G2 robust z-score: 5.4; G2 cells, % of GMNN control: 41; activity call: active

The listing continues.
Depletion of TAC1 (tachykinin precursor 1) #1 came out at: G2 robust z-score 0.949; G2 cells, % of GMNN control 9.65; inactive.
For TAC1 (tachykinin precursor 1) #2, the values are G2 robust z-score -0.257; G2 cells, % of GMNN control 1.16; inactive.
Depletion of TAC1 (tachykinin precursor 1) #3 resulted in: G2 robust z-score 0.365; G2 cells, % of GMNN control 5.54; inactive.
IGFBPL1 (insulin like growth factor binding protein like 1) #1 gave G2 robust z-score 4.53; G2 cells, % of GMNN control 34.9; inactive.
Against IGFBPL1 (insulin like growth factor binding protein like 1) #2, the values are G2 robust z-score -0.715; G2 cells, % of GMNN control -2.06; inactive.
IGFBPL1 (insulin like growth factor binding protein like 1) #3 scored G2 robust z-score -0.383; G2 cells, % of GMNN control 0.269; inactive.
For STS (steroid sulfatase) #1 the deposit lists G2 robust z-score -0.531; G2 cells, % of GMNN control -0.768; inactive.
STS (steroid sulfatase) #2 gave G2 robust z-score 2.42; G2 cells, % of GMNN control 20; inactive.
With knock-down of STS (steroid sulfatase) #3, the record shows G2 robust z-score 0.487; G2 cells, % of GMNN control 6.4; inactive.
After knock-down of PLAU (plasminogen activator, urokinase) #1 the results were G2 robust z-score -0.806; G2 cells, % of GMNN control -2.7; inactive.
Depletion of PLAU (plasminogen activator, urokinase) #2 resulted in: G2 robust z-score -0.773; G2 cells, % of GMNN control -2.47; inactive.
Depletion of PLAU (plasminogen activator, urokinase) #3 gave: G2 robust z-score 1.07; G2 cells, % of GMNN control 10.5; inactive.
